From ChEMBL document CHEMBL3988442, “University of Dundee, Small-Polar-MMV Screening Library” (2021).

A: 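Phenotypic screen: M. tuberculosis growth, cholesterol and DPPC medium, 4 days; the read-out is not stated. Concentration: 500 µM. The record gives no direction; compounds that gave an IC50 in retests scored well above the rest, so higher reads as more growth inhibition. Of about 18,000 compounds tested this way, about 900 (5%) reached 50% or more in at least one test.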
B: 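Phenotypic screen: M. tuberculosis growth, glucose 7H9 medium, 3 days; the read-out is not stated. Tested at 500 µM. The record gives no direction; compounds that gave an IC50 in retests scored well above the rest, so higher reads as more growth inhibition. About 18,000 compounds were tested under these conditions; 7.9% (about 1,400) showed 50% or more at least once.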

Values are the deposited “Percent Effect”, in %. The record does not define 0% and 100%; most values in the screen are far below 50% and negative numbers occur (in some assays of this library far below -100). Compounds were drawn at random from those tested, without regard to their results.

| structure | A | B |
|---|---|---|
| `CNC(=O)c1cccc(NCc2nc(C)cs2)n1` | -20.63 | -11.86 |
| `COc1cc(CNn2cnnc2)ccc1OCC(N)=O` | 14.19 | 8.022 |
| `Cn1ccnc1CN1CCCSCC1` | 2.437 | 22.07 |
| `O=C(c1ccccc1Br)N1CCOCC1` | 13.52 | 26.59 |
| `COCCOCC(=O)Nc1cc(C)c(Br)cn1` | -9.33 | 20.05 |
| `Cc1ccc(CN(CC(=O)N2CCNC2=O)C(C)C)s1` | -10.46 | 10.39 |
| `COC(=O)CN1CCCC(c2ncc[nH]2)C1` (stereo not given) | 21.05 | 4.671 |
| `Cc1ncsc1CCO` | -0.7686 | 1.977 |
| `NCc1ccc(C(=O)Nc2ccncc2)cc1` | 12.17 | 21.12 |
| `CCOc1ccccc1NC(=O)N1CCN(C)CC1` | 20.92 | 8.936 |
| `CN(CC(N)=O)CC1CN(Cc2ccccc2)CCO1` (stereo not given) | 4.212 | 11.03 |
| `CCOc1ccc(CN(C)CCNC)cc1CO` | -0.8459 | 9.002 |
| `CN(CCCN)c1ccccc1F` | 86.55 | 91.06 |
| `COc1ccc(NC(=O)NC2CCS(=O)(=O)C2)cn1` (stereo not given) | -53.4 | -44.06 |
| `COC(=O)CNC(=O)NC(C)C` | 10.69 | -5.651 |
| `CC(C)c1cc(C(=O)N[C@@H]2CCOC[C@H]2O)cs1` | 62.76 | 25.31 |
| `COc1ccc(Nc2ncccc2S(N)(=O)=O)cc1` | 55.66 | 45.26 |
| `CC(C)C(N)c1nnc2n1CCC2` (stereo not given) | -7.447 | -13.2 |
| `CCn1c(CN(C)CC(=O)NC)nnc1[C@H]1C[C@H](N)C1` | 1.015 | 8.038 |
| `CC(=O)c1cccc(F)c1F` | -15.88 | -4.421 |
| `CO[C@H]1C[C@@H](O)C12CCN(C(=O)Cc1cccs1)CC2` | -3.192 | 17.04 |
| `CC(C)(C)OC(=O)N1CCn2ccnc2C1` | 18.43 | 6.674 |
| `Cc1cc(C)n(CC(=O)N2CCOCC2C)n1` (stereo not given) | -7.628 | -0.3622 |
| `O=C(C1=COCCO1)N(Cc1ccco1)C1CC1` | 41.1 | 43.1 |
| `COc1cc(OC)c(NC(=O)C2CCCN2)cc1F` (stereo not given) | 12.33 | 1.581 |
| `COCCN(C)CC1CCCN1` (stereo not given) | -6.964 | -7.989 |
| `N#Cc1cccc(NC(=O)CN2CCCCCC2=O)c1` | 7.699 | 8.566 |
| `COc1cccc(C(=O)NC2CCN(C)CC2)c1OC` | 9.785 | 8.422 |
| `O=C(CSC1=NCCN1)Nc1ccc(F)cc1` | -1.704 | 4.577 |
| `COCc1nc(CCN)no1` | 1.309 | 4.792 |
| `CC(O)C1CCN(CC(=O)NC2CCCC2)CC1` (stereo not given) | -15 | 0.8109 |
| `CN1CCN(C(N)=O)C(c2ccccc2)C1` (stereo not given) | -3.834 | -0.1374 |
| `CN1CCN(C2CCN(C(=O)c3ccsc3)C2)CC1` (stereo not given) | 0.6398 | 16.9 |
| `CCOC(=O)CNC(=O)Nc1ccc(C#N)cc1` | 4.596 | 9.463 |
| `Cc1nn(C)cc1C(C)NC(=O)CNc1ccccc1` (stereo not given) | -4.031 | 8.244 |
| `OC1(c2ccccc2)CCCNCC1` (stereo not given) | -7.454 | 4.138 |
| `O=C(OCC(F)(F)F)c1cccnc1` | -23.95 | -10.78 |
| `Cc1ccc2c(c1)C(=O)NCC2` | -2.138 | 18.22 |
| `Cc1ccc(C(=O)N(C)CCCS(C)(=O)=O)cc1` | -14.06 | -5.26 |
| `COc1cc(C(=O)N2CCCC[C@H](N(C)C)C2)ccn1` | 9.91 | 13.63 |
| `COC(=O)CN1CCN(c2ccccc2O)CC1` | -2.877 | 20.03 |
| `O=c1[nH]c(-c2ccncc2)nc2c1CCC2` | -11.76 | -8.989 |
| `CN(C)c1cccc(C(=O)NCCc2ncnn2C)c1` | 4.957 | 17.18 |
| `NCc1cc2cccnc2cc1Br` | -4.415 | 8.481 |
| `CCNC(=O)c1ccc(-c2ccccc2C(N)=O)s1` | 7.008 | -1.98 |
| `CCc1ccc(CN2CCN3CCN(C)CC3C2)o1` (stereo not given) | -6.281 | 6.02 |
| `CC1C(=O)NCCCN1C(=O)NCc1ccsc1Br` (stereo not given) | 11.17 | 26.29 |
| `c1ccc2c(c1)cnn2CC1CCCNC1` (stereo not given) | 19.64 | 28.13 |
| `CC(C)n1cnnc1CNC(=O)Nc1ccccc1` | 0.5749 | 4.77 |
| `CCNC(=O)Nc1c[nH]nc1C1CCCNC1` (stereo not given) | 7.4 | 9.277 |
| `Cc1noc(C)c1NC(=O)NCCCc1csc(N)n1` | -4.706 | 7.326 |
| `CCCc1cc(C(N)=O)ccn1` | 5.832 | 18.27 |
| `O=C(NCCCN1CCCC1)c1cccnc1` | 12.81 | 5.122 |
| `COC(=O)Cn1cnc(N)n1` | 2.316 | 12.04 |
| `O=C(Cn1cncn1)NC(C1CC1)C1CC1` | -18.52 | 2.515 |
| `Cc1cccc(S(=O)(=O)N(C)C(C)CN)c1C#N` (stereo not given) | 1.841 | 42.12 |
| `O=C(Cc1ccsc1)N1CCC(c2cc[nH]n2)CC1` | 3.662 | 20.4 |
| `O=C(NCC1(O)CCCNCC1)c1ccc(=O)[nH]c1` (stereo not given) | 3.936 | -4.403 |
| `O=C(C1CCCOC1)N1CCCc2c(F)cccc21` (stereo not given) | 28.59 | 49.48 |
| `CCCNC(=O)Nc1ccccn1` | 10.56 | 20.42 |
| `CNC(=O)c1noc(CN(C)CC2CCC2)n1` | 24.14 | 32.87 |
| `N#CCCN(Cc1ccccc1)C(=O)c1ccco1` | 10.07 | 40.97 |
| `CN(CCO)CCNc1cc([C@H]2C[C@H](N)C2)ncn1` | -23.59 | -8.767 |
| `CN(C)[C@@H]1CN(C(=O)c2cccnn2)C[C@H]1CO` | -8.252 | -2.736 |
| `O=C(Nc1nncs1)NC1CCNCC1` | 8.094 | -2.188 |

Some entries from above, unchanged:

- COc1cc(C(=O)N2CCCC[C@H](N(C)C)C2)ccn1 | A: 9.91%; B: 13.63%
- CNC(=O)c1noc(CN(C)CC2CCC2)n1 | A: 24.14%; B: 32.87%
- Cn1ccnc1CN1CCCSCC1 | A: 2.437%; B: 22.07%
- O=C(NCCCN1CCCC1)c1cccnc1 | A: 12.81%; B: 5.122%
- COCCOCC(=O)Nc1cc(C)c(Br)cn1 | A: -9.33%; B: 20.05%